Source: PubChem BioAssay AID2662 (National Center for Advancing Translational Sciences (NCATS), 2010)
The campaign covered roughly 290,000 compounds. About 110 (0.038%) were called active. Inconclusive results, whose numbers are uncertain, are shown with a selection of clear calls. Calls come from the whole dose curve; as a rule, active = well fitted inhibition curve with a large enough effect in the polarisation, with a control signal flat (not every such curve was filed as active); inconclusive = small, poorly fitted or top-dose-only effect, or effect the other way, or a change in a side signal; inactive = no such curve, though single readings can be large or run the other way; the % refers to the polarisation. A potency beside an inconclusive call is a rough fit, not a confirmed value. “Side channel” marks fits to a control or component signal instead of the main read-out.
Potency is the fitted concentration of half-maximal effect.

By UniProt entry, the sequences of proteins in these tests, tags left out.
UniProt Q03164, whole entry, looked up: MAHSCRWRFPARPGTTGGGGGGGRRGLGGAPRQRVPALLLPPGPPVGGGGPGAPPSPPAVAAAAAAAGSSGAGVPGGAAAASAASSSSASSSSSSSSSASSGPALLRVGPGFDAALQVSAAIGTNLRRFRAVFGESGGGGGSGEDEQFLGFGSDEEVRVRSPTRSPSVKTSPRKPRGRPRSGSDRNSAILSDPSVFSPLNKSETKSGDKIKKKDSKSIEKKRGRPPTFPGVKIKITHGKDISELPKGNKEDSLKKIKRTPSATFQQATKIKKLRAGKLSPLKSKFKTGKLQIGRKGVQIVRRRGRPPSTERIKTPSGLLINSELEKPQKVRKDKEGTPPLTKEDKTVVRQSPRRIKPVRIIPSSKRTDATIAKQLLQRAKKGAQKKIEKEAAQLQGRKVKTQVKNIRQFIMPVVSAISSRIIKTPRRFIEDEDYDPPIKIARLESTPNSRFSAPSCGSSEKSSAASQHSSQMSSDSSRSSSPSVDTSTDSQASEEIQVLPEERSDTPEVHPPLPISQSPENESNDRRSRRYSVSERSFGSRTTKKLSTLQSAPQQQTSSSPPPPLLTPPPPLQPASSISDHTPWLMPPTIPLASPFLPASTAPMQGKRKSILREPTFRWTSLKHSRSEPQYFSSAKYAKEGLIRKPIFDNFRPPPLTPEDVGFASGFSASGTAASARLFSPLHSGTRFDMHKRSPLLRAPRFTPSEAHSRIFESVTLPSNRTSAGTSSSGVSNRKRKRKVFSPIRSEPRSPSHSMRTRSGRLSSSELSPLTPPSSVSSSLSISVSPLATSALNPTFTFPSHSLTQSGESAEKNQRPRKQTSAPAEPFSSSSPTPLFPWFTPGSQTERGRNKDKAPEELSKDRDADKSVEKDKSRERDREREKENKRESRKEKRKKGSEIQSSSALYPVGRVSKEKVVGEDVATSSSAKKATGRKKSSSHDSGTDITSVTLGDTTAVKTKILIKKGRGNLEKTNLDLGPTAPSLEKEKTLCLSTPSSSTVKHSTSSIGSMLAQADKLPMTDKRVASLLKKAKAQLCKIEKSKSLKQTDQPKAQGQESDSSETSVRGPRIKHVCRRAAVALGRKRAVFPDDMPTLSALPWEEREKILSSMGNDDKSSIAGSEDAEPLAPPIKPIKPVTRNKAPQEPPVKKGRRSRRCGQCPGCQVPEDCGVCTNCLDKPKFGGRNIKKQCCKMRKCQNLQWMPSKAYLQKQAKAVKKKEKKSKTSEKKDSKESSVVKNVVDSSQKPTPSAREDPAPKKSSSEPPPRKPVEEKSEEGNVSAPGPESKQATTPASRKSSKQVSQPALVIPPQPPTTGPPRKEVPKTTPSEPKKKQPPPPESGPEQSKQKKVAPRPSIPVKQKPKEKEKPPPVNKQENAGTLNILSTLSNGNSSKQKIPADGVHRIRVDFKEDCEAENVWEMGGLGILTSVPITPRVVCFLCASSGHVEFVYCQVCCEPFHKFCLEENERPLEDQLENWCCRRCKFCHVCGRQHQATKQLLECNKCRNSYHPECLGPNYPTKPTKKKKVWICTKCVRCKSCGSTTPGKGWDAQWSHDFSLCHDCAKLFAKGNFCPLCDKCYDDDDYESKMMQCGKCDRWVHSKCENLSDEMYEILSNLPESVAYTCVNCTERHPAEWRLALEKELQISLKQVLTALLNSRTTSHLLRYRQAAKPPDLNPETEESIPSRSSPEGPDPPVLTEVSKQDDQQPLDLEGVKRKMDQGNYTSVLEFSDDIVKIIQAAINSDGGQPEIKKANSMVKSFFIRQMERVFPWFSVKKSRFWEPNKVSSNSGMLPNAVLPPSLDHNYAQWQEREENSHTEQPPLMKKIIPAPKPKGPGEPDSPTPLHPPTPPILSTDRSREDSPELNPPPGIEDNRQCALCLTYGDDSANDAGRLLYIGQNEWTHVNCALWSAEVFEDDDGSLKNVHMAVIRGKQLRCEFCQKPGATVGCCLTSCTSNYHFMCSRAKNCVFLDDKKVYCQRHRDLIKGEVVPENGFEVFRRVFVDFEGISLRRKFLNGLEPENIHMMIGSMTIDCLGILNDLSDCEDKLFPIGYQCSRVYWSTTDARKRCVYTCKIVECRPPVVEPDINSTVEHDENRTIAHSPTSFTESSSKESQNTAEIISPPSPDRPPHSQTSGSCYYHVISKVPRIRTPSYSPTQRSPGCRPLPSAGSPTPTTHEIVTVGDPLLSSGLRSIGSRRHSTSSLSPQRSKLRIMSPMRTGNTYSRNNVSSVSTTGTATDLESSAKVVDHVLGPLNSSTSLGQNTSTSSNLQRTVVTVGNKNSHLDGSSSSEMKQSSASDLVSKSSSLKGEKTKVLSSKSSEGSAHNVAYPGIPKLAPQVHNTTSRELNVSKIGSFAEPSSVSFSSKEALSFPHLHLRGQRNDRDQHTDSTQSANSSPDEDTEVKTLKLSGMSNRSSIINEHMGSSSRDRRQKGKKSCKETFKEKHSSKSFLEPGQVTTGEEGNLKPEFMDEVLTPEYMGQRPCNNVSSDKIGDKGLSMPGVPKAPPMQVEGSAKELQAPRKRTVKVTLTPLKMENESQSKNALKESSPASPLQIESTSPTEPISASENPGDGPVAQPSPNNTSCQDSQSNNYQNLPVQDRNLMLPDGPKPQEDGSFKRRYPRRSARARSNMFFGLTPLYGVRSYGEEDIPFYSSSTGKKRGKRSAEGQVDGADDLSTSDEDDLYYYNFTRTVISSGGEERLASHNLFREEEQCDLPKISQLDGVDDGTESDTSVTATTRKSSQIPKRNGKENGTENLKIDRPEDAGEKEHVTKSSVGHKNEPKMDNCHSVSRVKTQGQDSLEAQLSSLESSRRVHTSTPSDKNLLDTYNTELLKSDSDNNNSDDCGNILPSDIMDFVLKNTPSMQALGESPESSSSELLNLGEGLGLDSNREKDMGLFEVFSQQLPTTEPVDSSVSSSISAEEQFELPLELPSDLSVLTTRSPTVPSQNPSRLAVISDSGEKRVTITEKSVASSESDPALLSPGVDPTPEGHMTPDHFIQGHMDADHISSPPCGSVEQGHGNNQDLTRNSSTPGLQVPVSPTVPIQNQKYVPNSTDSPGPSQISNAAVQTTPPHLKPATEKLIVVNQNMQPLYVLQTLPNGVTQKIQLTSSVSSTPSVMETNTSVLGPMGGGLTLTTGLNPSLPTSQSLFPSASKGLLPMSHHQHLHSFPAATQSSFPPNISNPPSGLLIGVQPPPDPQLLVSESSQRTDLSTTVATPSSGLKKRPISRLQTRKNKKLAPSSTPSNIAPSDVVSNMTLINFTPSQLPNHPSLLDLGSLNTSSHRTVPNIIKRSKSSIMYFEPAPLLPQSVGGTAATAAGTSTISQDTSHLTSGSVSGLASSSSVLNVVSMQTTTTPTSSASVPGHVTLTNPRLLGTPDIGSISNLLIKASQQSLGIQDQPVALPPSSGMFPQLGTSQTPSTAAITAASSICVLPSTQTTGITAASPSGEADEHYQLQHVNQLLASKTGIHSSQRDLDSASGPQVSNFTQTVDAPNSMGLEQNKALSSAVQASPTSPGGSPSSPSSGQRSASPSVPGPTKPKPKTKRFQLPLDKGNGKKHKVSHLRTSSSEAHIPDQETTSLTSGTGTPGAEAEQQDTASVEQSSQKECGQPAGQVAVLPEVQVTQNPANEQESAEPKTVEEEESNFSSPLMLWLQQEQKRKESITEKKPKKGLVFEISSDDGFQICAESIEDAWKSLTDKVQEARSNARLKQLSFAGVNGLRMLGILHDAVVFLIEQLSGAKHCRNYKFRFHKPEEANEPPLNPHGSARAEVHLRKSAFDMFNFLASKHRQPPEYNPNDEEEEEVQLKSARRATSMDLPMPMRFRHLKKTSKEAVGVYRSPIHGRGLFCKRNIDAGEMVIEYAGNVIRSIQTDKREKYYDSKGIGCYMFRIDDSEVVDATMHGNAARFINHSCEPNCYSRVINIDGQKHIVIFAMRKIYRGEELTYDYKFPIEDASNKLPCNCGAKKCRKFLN

These compounds were tested against Histone-lysine N-methyltransferase 2A (Homo sapiens) (UniProt Q03164) (assay: qHTS Fluorescence Polarization Assay for Inhibitors of MLL CXXC domain - DNA interaction). Conditions: MLL-CXXC / FITC-HOXA9 DNA fluorescence polarization; activity change, negative = inhibition: at 115 µM (top of the series).
Text: NIH Chemical Genomics Center [NCGC] NIH Molecular Libraries Probe Production centers Network [MLPCN] MLPCN Grant: DA027717-01A1 Assay Submitter (PI): John Bushweller NCGC Assay Overview: The MLL (Mixed Lineage Luekemia) gene is involved in chromosomal translocation that results in either acute lymphoid leukemia (ALL) or acute myeloid leukemia (AML). Chromasomal translocation of MLL gene is responsible for the fusion of N-terminal MLL to more than 60 different partner genes in frame. Many of the MLL partner genes contain transcription activation domains or function as transcriptional activators. Despite the heterogeneity of fusion partners, the N-terminus of MLL fusion proteins always consists of the N-terminal menin binding motif and the CXXC domain. The MLL-CXXC domain specifically recognizes unmethylated CpG sequences of the HOX-A gene. Disruption of the MLL-CXXC and HOX-A gene interaction leads to down regulation of HOX-A gene expression and may potentially reverse leukemogenesis. We have miniaturized and optimized an in-vitro assay to screen for inhibitors of the MLL-CXXC domain and HOX-A DNA interaction, which could have utility in MLL fusion leukemias.
The affinity purified MLL-CXXC domain, unlabeled HOX-A9 DNA strand, fluorescein (FLSN) labeled HOX-A9 DNA strand were kindly supplied by the laboratory of Dr. John Bushweller, University of Virginia. All reagents were stored in single use aliquots at -80C. Assay Reagents: Assay buffer: 50 mM TRIS-HCl pH 7.5, 50 mM NaCl, 1 mM DTT. Add 0.05% BSA prior to reaction setup. Assay Procedure: 1.Dispense 1 ul of a 7 uM MLL-CXXC solution prepared in assay buffer into column 1-48. 2.Transfer 23 nl of compounds and unlabeled HOX-A9 per well. 3.Incubate for 5 minutes at ambient. 4.Dispense 1ul of a 50 nM FLSN-HOX-A9 solution prepared in assay buffer into columns 1-48 5.Centrifuge for 30 seconds at 1000 RPM. 6.Incubate for 30 minutes at ambient. 7.Read using the Envision reader fluorescent polarization protocol.
With CCCCN(C(=O)c1cccc(C)c1)c1c(N)n(CCC)c(=O)[nH]c1=O the Potency was inconclusive: 1 µM [fluorescent, side channel, full curve, poor fit].
In the case of COc1ccc(OC)c(S(=O)(=O)N2CCN(c3ncccn3)CC2)c1, the Potency is reported as inconclusive: 3.98 µM [fluorescent, side channel, partial curve].
In the case of O=C(Cc1ccccc1)N/N=C/c1cc(Br)cc(Br)c1O, the Potency is reported as inconclusive: 50.1 µM [fluorescent, side channel, single point].
In the case of C/C(=N\NC(=O)c1ccc(CSc2nncn2C)cc1)c1ccc(C#N)cc1, the Potency is reported as inconclusive: 14.1 µM [inhibitor, single point].
CCn1c(SCC(=O)Nc2nc(C)c(C)s2)nnc1-c1ccco1 was tested, and the “activity change, negative = inhibition” value was inactive: 3.34%.
With O=[N+]([O-])c1c(Nc2ccccn2)cc(Cl)c2nonc12 the Potency was inconclusive: 31.6 µM [fluorescent, side channel, partial curve].
With O=[N+]([O-])c1ccccc1NCCNS(=O)(=O)c1ccc(Cl)cc1 the “activity change, negative = inhibition” value was inactive: 10%.
O=C1OCc2nc3cc4c(cc3c(-c3ccc(F)cc3)c21)OCO4 was tested, and the Potency was inconclusive: 14.1 µM [fluorescent, side channel, single point].
In the case of COc1ccccc1NC(=O)Nc1ccnn1C1CCCCC1, the “activity change, negative = inhibition” value is reported as inactive: 5.55%.
In the case of Cc1cc(C)c(NC(=O)CSc2nnnn2-c2cccnc2)c(C)c1, the “activity change, negative = inhibition” value is reported as inactive: 10.1%.
In the case of COc1cccc(CNc2ccc(F)c(Cl)c2)c1, the “activity change, negative = inhibition” value is reported as inactive: 11.6%.
For O=C(Nc1ccc([N+](=O)[O-])cc1)Nc1ccc(Cl)cc1F, the Potency was inconclusive: 15.8 µM [fluorescent, side channel, single point].
With COc1ccccc1C(=O)Nc1nnc(S(=O)(=O)N2CCC(C)CC2)s1 the Potency was inconclusive: 1.58 µM [quencher, side channel, full curve, poor fit].
With CC(C)CNC(=O)COC(=O)CNC(=O)c1cc(Cl)cc([N+](=O)[O-])c1 the Potency was inconclusive: 1.41 µM [quencher, side channel, partial curve, poor fit].
With CCOc1cc(/C=C(/C#N)C(=O)Nc2ccc(O)cc2)cc(Br)c1O the Potency was inconclusive: 2.82 µM [fluorescent, side channel, full curve].
With O=C(Nc1ncccn1)c1ccc([N+](=O)[O-])o1 the Potency was inconclusive: 25.1 µM [fluorescent, side channel, partial curve].
In the case of Cc1ccc(S(=O)(=O)N2CCCCC2)cc1, the “activity change, negative = inhibition” value is reported as inactive: -16%.
In the case of O=C(CCCN1C(=O)/C(=C\c2cccs2)SC1=S)Nc1cc([N+](=O)[O-])ccc1O, the Potency is reported as inconclusive: 28.2 µM [inhibitor, single point].
